Data from paper PMC9468158, “Transmembrane helices mediate the formation of a stable ternary complex of b5R, cyt b5, and SCD1” (Communications Biology, 2022).
Results are given in words; binding and its absence hold for the method and conditions named. Binding seen in cells or lysates may run through a third protein. Some entries that bind do so weakly or less than the wild type. Where a sequence is shown, tags or fusion partners need not be part of it.

Amino acid sequences for entries named in this document (tags omitted).
UniProt P56395: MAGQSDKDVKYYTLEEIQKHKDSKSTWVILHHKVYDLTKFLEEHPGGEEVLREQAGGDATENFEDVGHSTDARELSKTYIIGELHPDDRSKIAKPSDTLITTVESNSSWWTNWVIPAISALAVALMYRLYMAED

What was measured:
[1] = biological target: T1, SCD1-GFP (mouse stearoyl-CoA desaturase-1 with a C-terminal GFP tag) (mouse) (UniProt P13516); assay: co-IP; lysate of co-transfected HEK 293S cells (20 mM HEPES pH 7.5, 150 mM NaCl, 10% glycerol, 0.2% Triton X-100), GFP-tagged bait captured on GFP nanobody-conjugated resin, 30 min at 4 °C, washed in 0.1% Triton X-100, western blot for GFP, Myc and HA
T1 sequence: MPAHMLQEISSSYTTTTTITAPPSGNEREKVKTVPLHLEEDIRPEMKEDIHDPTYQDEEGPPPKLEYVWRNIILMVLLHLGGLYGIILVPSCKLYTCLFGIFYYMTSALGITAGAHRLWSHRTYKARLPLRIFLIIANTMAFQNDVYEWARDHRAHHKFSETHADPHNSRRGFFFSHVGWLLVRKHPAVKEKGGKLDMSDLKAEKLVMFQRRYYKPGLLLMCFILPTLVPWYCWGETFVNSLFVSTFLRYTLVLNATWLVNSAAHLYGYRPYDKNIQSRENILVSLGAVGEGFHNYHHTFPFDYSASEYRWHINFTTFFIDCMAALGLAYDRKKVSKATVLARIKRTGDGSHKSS

[2] = biological target: Myc-cyt b5 (mouse cytochrome b5 with an N-terminal Myc tag) (mouse) (UniProt P56395); assay: co-IP; lysate of co-transfected HEK 293S cells (0.2% Triton X-100), Myc-cyt b5 captured with rabbit anti-Myc antibodies and protein A agarose, 30 min at 4 °C, western blot

Row | Molecule | binding [1] | binding [2]
1 | Myc-cyt b5 (mouse cytochrome b5 with an N-terminal Myc tag) (from UniProt P56395 1-134) | binds | –
2 | HA-b5R (mouse cytochrome b5 reductase with an N-terminal HA tag) (enzyme, UniProt Q9DCN2 1-301) MGAQLSTLSHVVLSPVWFIYSLFMKLFQRSTPAITLENPDIKYPLRLIDKEVISPDTRRFRFALPSPQHILGLPIGQHIYLSTRIDGNLVIRPYTPVSSDDDKGFVDLVVKVYFKDTHPKFPAGGKMSQYLENMKIGDTIEFRGPNGLLVYQGKGKFAIRADKKSNPVVRTVKSVGMIAGGTGITPMLQVIRAVLKDPNDHTVCYLLFANQSEKDILLRPELEELRNEHSARFKLWYTVDKAPDAWDYSQGFVNEEMIRDHLPTPGEEPLILMCGPPPMIQFACLPNLERVGHPKERCFTF | binds | binds
